# Test results reported in PubChem BioAssay AID1508600 (Functional Genomics Laboratory (NCATS/FGL), 2020).
# The whole screen tested about 53,000 sequences, of which about 3,700 (7%) were called active.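 Rule for the calls: active = gene knockdowns whose robust z-score for IL-1 alpha signal is at least 2 or at most -2, so actives lie on both sides; inactive = the rest.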 The list shows a part of the results.
# Assay: Components of the Cytosolic LPS Sensing Pathway: Gene Identification via Genome-wide siRNA Screen;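 note: robust z of the log signal after scaling to non-targeting control siRNA wells of the plate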
# Conditions: RAW264.7 macrophages, IL-1a HTRF, actives lie on both sides, screened at 100 nM (by protocol), cells primed 5 h with Pam3CSK4 first
# In short: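 Three distinct siRNAs per gene were tested singly at 100 nM in RAW264.7 macrophages. Following Pam3CSK4 priming and 24 hour LipidA transfection, IL-1a secretion was read by HTRF.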
row,Sequence,z-score
1,CGUCUGUCCUAAUGAACCUTT against Pramel31,inactive: 0.15
2,GACGCAAGCAGCAUUUUAUTT against R3hdm4,inactive: -0.207
3,CCUGCACAGGAUAAUUAUGTT against Zfp426,inactive: 0.848
4,GGGUAAUUGUCUCUAGUAATT against Adam24,inactive: -0.121
5,GGAGAAACGGUACAUCUGUTT against Gstm5,inactive: -0.956
6,GGAAGAAGAACUGCACCUATT against Tcea2,inactive: -1.08
7,GGAAAUAUUGUCAUCAUGGTT against Olfr1302,inactive: -0.483
8,GCGGCAGUGAUGAUAAGAATT against Acbd5,inactive: -0.825
9,GGAUUUAUACUGAAUUGUCTT against Rpl39,inactive: 0.273
10,GGAGCGAGAAGGUAAAGUCTT against Pibf1,inactive: 1.05
11,GCUGUUACAGACCUGUUUCTT against Hspbp1,inactive: 0.482
12,CGCGGUGGAGCUUCGAGAATT against Nrtn,inactive: 0.374
13,GUCACGAGAUUCAAGAUGUTT against Pate4,inactive: 0.0789
14,CCUCGAAUUACGUAUGUUUTT against Fyn,inactive: 1.12
15,GCUAACAUUGUAAAUGCACTT against Dmrta1,inactive: 0.467
16,GCACGACACUCUGUGCAUCTT against Kyat3,inactive: 0.6
17,GGCCUAGCAAGGGAUUUUATT against Cep85,active: -2.02
18,GGAGUUUAUGAGGAACUCGTT against Zwint,inactive: -0.0598
19,CGAGGUCGAUGGAUAAAGGTT against Scnm1,inactive: -0.103
20,GGAGUUUGUUAACAGAGUATT against Pcyt1b,inactive: -0.634
21,GCUGGCAGUUUGUAAGUAGTT against Faxc,inactive: -0.653
22,GGACAGUUAGAUGGAUUGUTT against Msc,inactive: -1.66

row,Sequence,z-score
1,GGCUACAGAAGGUGUUCAGTT against Klra22,inactive: 0.71
2,CCAUUAACGUAAAUUCUGUTT against Ankrd13c,inactive: -0.971
3,GGCCAAAAAAACAUACAAGTT against Zbtb21,active: 4.91
4,GGAGCUUCAGGUGAAGCGATT against Fam136a,inactive: -1
5,GGAGAAAGUGUAGUGUUUATT against Siglecf,inactive: 0.76
6,CCAGUUGAAAUAUUGAGCATT against Mbnl3,inactive: -0.16
7,GGAAAAUCCCUCUUUGGCUTT against Sez6l2,inactive: -0.566
8,GGUUUGUAUUGUAACUUUGTT against Abi1,inactive: 0.414
9,GGCAUGGUGGGACAUUUCUTT against Pla1a,inactive: -0.248
10,GCAUUGAAGUCACCUCCACTT against Clcn2,inactive: 0.161
11,GGUACGAAGUCAAAGUGAATT against Dnmt3l,inactive: 0.0494
12,GCCAUUUCCUACAAUGCUUTT against Olfr1443,inactive: -1.73
13,CCUAGACGUGACUUAAUAUTT against Rabggtb,active: 2.09
14,GCAUGAUGCAUACAAAGGCTT against Etfa,inactive: -0.829
15,GGAGUUUUCAGCAACAAAUTT against Fgf5,inactive: -0.829
16,GGAAAAGCAACACAUCUAUTT against Chst7,inactive: 0.268
17,GGCUGAAACUAAGAACUCATT against Nelfe,inactive: -0.86
18,CCGAAAGGCUGGUACAUUCTT against Kin,inactive: -0.494
19,CGGUACAAGCUAGACCUCATT against Mettl26,inactive: 0.493
20,GGACUUAGUACCUGAUAACTT against Rtraf,inactive: 0.838
21,CCAGAGUACAGUGUAGUCATT against Hspb6,inactive: 0.508
22,GGUGACAUUGUAAUAACCATT against Sult1b1,inactive: -1.1

row,Sequence,z-score
1,GUCCAGAGUGACCACAUUUTT against Pemt,inactive: -0.471
2,CCCUAAACCUCUUUCAACATT against Nbeal1,inactive: 0.534
3,GGUCGACUGAAGGCCUUUUTT against Olfr1339,inactive: -1.21
4,CGGGCUGAAUGUGUUUGUGTT against Slc10a4,active: 2.62
5,GGAGUUUCUCUUAGGGAAATT against Ubald2,inactive: 1.58
6,GGACAUUGUGCUAUUUUAATT against Mepe,inactive: -0.645
7,GCAGACGACAAGUUCUACATT against Tbcb,inactive: -0.666
8,GGUCAAAGAGUUCUGUGAATT against Ppp2r1a,inactive: -0.79
9,AAGGAAGUCUGUCCAAGGUTT against Olfr192,inactive: -0.284
10,GCUUUUCAGGGCAGGUUACTT against Tmem150c,inactive: 1.4
11,GGUUUGCUAGCUGACAACCTT against Dpep1,inactive: -1.4
12,GGCCAACCUGUUCAUCAGCTT against Bdkrb1,inactive: -0.0817
13,GGACAAGAAAAAGUCCAGATT against Dhx38,inactive: -1.17
14,GGAAGCUGUGCUCUCCAUGTT against Gm4814,inactive: 0.644
15,GUGAGAAGUUGUGUAGAGCTT against Fmc1,inactive: 1.84
16,GGAGAAAGAGGAGAAGAAATT against 4931414P19Rik,inactive: -1.37
17,CGGACACUCGGAUCAUAUUTT against Mblac1,inactive: 0.611
18,GGAAGAAGAAAAGGAUUACTT against Erlec1,inactive: -0.0575
19,GGACUGUUGAAUAAAACCUTT against Rnps1,active: -2.29
20,GGUCCGAGAACAUCAUCGATT against Gnl3,inactive: 0.867
21,GCCUUAGGACGAGAGAAUATT against Spertl,inactive: -1.9
22,CCAUUCUGUGCCUUAGUUUTT against Loxhd1,inactive: -0.276

row,Sequence,z-score
1,CCUGUAGGGCUUUUUGAAATT against Mex3a,inactive: 0.843
2,GGACUUUGAGAAAGCAUUCTT against Pck1,active: -2.03
3,GGCACCUACAUCCUUAUUGTT against Ptprn,inactive: -0.16
4,GCAACCGAAGUAACAUAUATT against Rbmy,inactive: -0.805
5,GAUGGUACUCUUCAUAGUATT against Olfr1362,inactive: -1.1
6,GCCGUUUACGUUUAUUGUUTT against Cux2,inactive: -0.0356
7,CCCAGGACGACGACUUUUUTT against Pnmal1,inactive: -0.0664
8,GGGAAGAAAAAAAAAGGGUTT against Fkrp,inactive: -1.18
9,GGAUGAAAAAUCAGUACUUTT against Aadac,active: -2.02
10,GGGUAAUUAAAAAGGAAACTT against Nt5dc1,inactive: 1.3
11,CCUGGAAAAUAAAAGGUGGTT against Olfr1141,inactive: 0.147
12,CCAGUUCGAUGUGGUAAUATT against St3gal5,inactive: 1.11
13,GGACACUGUACAGAAGCUGTT against Asb18,active: -2.31
14,GCAAAAAAUGCUCAGUUAGTT against Utp14b,inactive: -0.406
15,GGAAAGAAAAAUCAGAGAATT against Adprhl1,inactive: -0.866
16,GGAGGGACACAGAGAUUACTT against Auh,active: 5.05
17,GGUUCAUCAACACCAGCAUTT against Fgfrl1,inactive: 0.926
18,GCCUGUGCCAGAUUUUCUCTT against Rgl2,inactive: 0.458
19,CCGGAUCAUCCUGGAGAUUTT against Krt13,inactive: -0.846
20,GGAUAGGUUUCUGUAUUUATT against Znrf1,inactive: 0.621
21,GGCUGAGCCAUUUGACAGATT against Afap1l2,inactive: 0.878
22,GCUCAACAGACUCUGUACUTT against Cadm2,inactive: 0.95

row,Sequence,z-score
1,GGGUGAUUUCUGGACUUGGTT against Arap1,inactive: -1.84
2,CCGUAUUCCAUACAAGGACTT against Ilk,inactive: -1.22
3,GGAUGAAACACAACUGCACTT against Ctsz,inactive: 0.256
4,GGCGUGAAGAAGUUUGAUGTT against Pklr,inactive: -0.431
5,GAAGAGCGGGUGUUGCUAATT against Ypel2,inactive: 0.891
6,GCAGUAACUCCGGUAGUAGTT against Daxx,active: 5.84
7,GGAGGAAAUACAUGAUAAATT against Strap,inactive: -0.159
8,GGAUAACAAAAACAGCAUUTT against Lmbrd2,inactive: 0.205
9,GCAGAGGAUUGAUGCACACTT against Nlrp4g,inactive: 1.14
10,GGAGAUUGAGCUGAAUAUUTT against Prss44,inactive: -0.734
11,CUUACAUUCCCAGUGUGCCTT against Nat14,inactive: -0.198
12,GAUUGGAUUUAAAGCCUGCTT against Olfr667,inactive: 0.389
13,GGCAAUGACCUUGUAAAGATT against Tomm34,inactive: -1.56
14,GCAGGCUUAAUGAAUUCUATT against Haus6,inactive: -0.133
15,CGUGGACUCUAUAAUCAACTT against Map7d1,active: 2.47
16,GGAAGUAGAGCUUCAAAUGTT against Cdkl2,active: 2.8
17,GGAUCGUUAGUCAUUUCUGTT against Olfr1054,inactive: -0.78
18,GGCCAUUGAUACCUACUGCTT against Comt,inactive: -1.03
19,GCAGUUAUUACCAAUAAUGTT against Plcd1,inactive: 1.16
20,GCACGUAUGGAAUUCAUGUTT against Daam2,inactive: 1.23

# Taken from above.
# Value of GAUUGGAUUUAAAGCCUGCTT against Olfr667 under z-score: inactive: 0.389
# Value of GGCAAUGACCUUGUAAAGATT against Tomm34 under z-score: inactive: -1.56
# Value of GGCGUGAAGAAGUUUGAUGTT against Pklr under z-score: inactive: -0.431
# Value of GGGUGAUUUCUGGACUUGGTT against Arap1 under z-score: inactive: -1.84
# Value of GGAGGAAAUACAUGAUAAATT against Strap under z-score: inactive: -0.159
# Value of GGAUAACAAAAACAGCAUUTT against Lmbrd2 under z-score: inactive: 0.205

# Part of the list above, with tabs:
row	Sequence	z-score
2	CCGUAUUCCAUACAAGGACTT against Ilk	inactive: -1.22
19	GCAGUUAUUACCAAUAAUGTT against Plcd1	inactive: 1.16
